Experimental data reported in PubChem BioAssay AID1259415 (National Center for Advancing Translational Sciences (NCATS), 2018).
In all, about 410,000 compounds went through this assay and about 18,000 (4.4%) were called active. The inconclusive results got no clear call from the source; some entries with a clear call stand among them for comparison. Cut-off read from the data, not from the text of the source: active = activity change below about -60%; inconclusive = no clear call, values can overlap the other calls; inactive = above about -39%.

Experiment: qHTS Assay for inhibitors of the human cytomegalovirus (HCMV)
Conditions: HFF cells, HCMV-luciferase reporter, 72 h; at 57.5 µM; active compounds read low
Outline: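 Inhibition of viral replication was scored as loss of reporter luminescence in HFFs infected with HCMV-luciferase (MOI 1 PFU/cell) for 72 h; compounds tested at 2 doses, normalized to buffer and Salinomycin controls.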
% is set by controls: 0 for no effect and ±100 for the full control effect.

| Compound | activity change, negative = inhibition |
| --- | --- |
| CCOC(=O)C1=C(O)/C(=C/c2ccc(OCC(=O)O)c(OCC)c2)SC1=Nc1ccc(C)cc1 | inconclusive: -58% |
| O=C1CSC2=NCN(c3ccc4c(c3)OCO4)CN12 | inactive: 20.3% |
| CCOC(=O)c1ccc(NC(=S)NN2CCN(C)CC2)cc1 | inactive: -30.6% |
| O=C(O)CCC(=O)N1N=C(c2ccc(Br)cc2)CC1c1cccs1 (centres undefined) | inconclusive: -49.3% |
| O=S(=O)(c1ccc(Br)s1)N1CCN(c2ccnc3cc(Cl)ccc23)CC1 | active: -71.9% |
| COc1ccc(C2CCCN2C(=S)Nc2cccc(Cl)c2C)cc1OC (centres undefined) | inconclusive: -40.7% |
| Cn1c(=O)c2c(ncn2CC(=O)N2CCN(S(=O)(=O)c3ccccc3)CC2)n(C)c1=O | inactive: -16.6% |
| c1ccc2[nH]c(-c3cscn3)nc2c1 | active: -89.5% |
| COc1ccccc1CNC(=O)CN1C(=O)NC2(CCC(C)CC2)C1=O (centres undefined) | inactive: 33.5% |
| O=C(CN1C(=O)S/C(=C\c2ccc(Cl)cc2)C1=O)NC1C=CS(=O)(=O)C1 (centres undefined) | inconclusive: -48.2% |
| COc1cc(OC)c(OC)cc1CNC(=O)c1ccc(S(=O)(=O)N2CCCCC2)cc1 | inconclusive: 0% |
| Cc1ccc(-n2nc3c(N4CCC(C(=O)N5CCN(C)CC5)CC4)nnc(C)c3c2C)cc1 | inconclusive: -48.7% |
| O=C(O)c1ccc(-n2c(-c3cc(C4CC4)[nH]n3)n[nH]c2=S)cc1 | inconclusive: -41.4% |
| CCC1Oc2ccccc2N(CC(=O)NCCN2CCc3ccccc3C2)C1=O (centres undefined) | inconclusive: -48.6% |
| CCc1ccccc1Nc1cc(C(=O)NCc2ccc(C)cc2)c2ccccc2n1 | inactive: 0.89% |
| OC[C@@H](O)[C@@H](O[C@@H]1O[C@H](CO)[C@H](O)[C@H](O)[C@H]1O)[C@H](O)[C@@H](O)CO | inconclusive: -45.3% |
| CCOC(=O)c1sc(NC(=O)C2CCC2)cc1C | inactive: -30.8% |
| CCCNC(=O)CSCc1nc(-c2ccc(SC)cc2)oc1C | inactive: -26.7% |
| C=CCNC(=O)c1ccc(-c2nc(-c3ccc(Cl)c(Cl)c3)cs2)cc1 | inconclusive: -58% |
| CCOC(=O)c1c(NC(=O)COC(=O)c2ccc(C)s2)sc2c1CC(C)(C)NC2(C)C | inactive: 20.1% |
| COc1cccc(C(=O)NNc2c3ccccc3nc3ccccc23)c1 | inconclusive: -49.7% |
| C=CCO/N=C(/C)c1ccc(Oc2cnccn2)cc1 | inactive: 2.68% |

An excerpt of these results, bar-delimited:
Compound | activity change, negative = inhibition
Cc1ccc(-n2nc3c(N4CCC(C(=O)N5CCN(C)CC5)CC4)nnc(C)c3c2C)cc1 | inconclusive: -48.7%
O=C(O)c1ccc(-n2c(-c3cc(C4CC4)[nH]n3)n[nH]c2=S)cc1 | inconclusive: -41.4%
CCC1Oc2ccccc2N(CC(=O)NCCN2CCc3ccccc3C2)C1=O (centres undefined) | inconclusive: -48.6%
CCc1ccccc1Nc1cc(C(=O)NCc2ccc(C)cc2)c2ccccc2n1 | inactive: 0.89%
OC[C@@H](O)[C@@H](O[C@@H]1O[C@H](CO)[C@H](O)[C@H](O)[C@H]1O)[C@H](O)[C@@H](O)CO | inconclusive: -45.3%
CCOC(=O)c1sc(NC(=O)C2CCC2)cc1C | inactive: -30.8%
CCCNC(=O)CSCc1nc(-c2ccc(SC)cc2)oc1C | inactive: -26.7%
C=CCNC(=O)c1ccc(-c2nc(-c3ccc(Cl)c(Cl)c3)cs2)cc1 | inconclusive: -58%
CCOC(=O)c1c(NC(=O)COC(=O)c2ccc(C)s2)sc2c1CC(C)(C)NC2(C)C | inactive: 20.1%
COc1cccc(C(=O)NNc2c3ccccc3nc3ccccc23)c1 | inconclusive: -49.7%
C=CCO/N=C(/C)c1ccc(Oc2cnccn2)cc1 | inactive: 2.68%

(continued)

| Compound | activity change, negative = inhibition |
| --- | --- |
| COc1ccc2cc(CN(Cc3ccco3)C(=S)NCC3CCCO3)c(=O)[nH]c2c1 (centres undefined) | inconclusive: -51.8% |
| CCN(CC)S(=O)(=O)c1ccc(N2CCN(c3ccccc3O)CC2)nc1 | inactive: -39.9% |
| O=C(O)CN(c1ccc2c(c1)OCCO2)S(=O)(=O)c1ccccc1 | active: -69% |
| CC(O)(c1ccc(F)c(F)c1)c1nc(/C=C/c2ccccc2)cs1 (centres undefined) | inconclusive: -55.8% |
| Cc1ccc(S(=O)(=O)NCC(=O)NCC(=O)NCCc2ccccc2F)cc1C | inconclusive: 0% |
| C#CC[N+](C)(C)CCCCCCCCCC | active: -98.1% |
| Cc1ccc(C)c2c(N)c3c(nc12)CCCCC3 (tested in a mixture with another compound) | active: -70.4% |
| CC(/C=N/n1c(-c2cccnc2)n[nH]c1=S)=C\c1ccco1 | inconclusive: -40.7% |
| CCC(=O)Nc1cc(SCCO)cc([N+](=O)[O-])c1 | inactive: 40.2% |
| COCCCNC(=O)C1CCC(=O)N1Cc1ccccc1Cl (centres undefined) | inactive: 12.3% |
| CC(=O)N1c2ccc(S(=O)(=O)NCC3CCC(C(=O)N4CCCCC4)CC3)cc2CC1C (centres undefined) | inactive: -2.69% |
| COc1cccc(CN(C)C(=O)CCc2nnc(-c3ccsc3)o2)c1 | inactive: 46.1% |
| Cc1ccc(C(NC(=O)C2CCCCC2)c2c(O)ccc3ccccc23)cc1 (centres undefined) | active: -66.4% |
| CCCCn1c(SCc2cccc([N+](=O)[O-])c2)nc2ccsc2c1=O | inconclusive: -40.5% |
| CCOc1ccc(S(=O)(=O)NCCc2csc(-c3ccc(Cl)cc3)n2)cc1 | inconclusive: -56.4% |
| O=C(c1ccccc1)c1nn(-c2ccccc2)c2nnc(Cc3ccccc3)c(=O)n12 | inactive: 12% |
| O=C(c1ccccc1)c1cc([N+](=O)[O-])ccc1N1CCOCC1 | inconclusive: -41.3% |
| CCN(CC)C(=O)Cn1cc(C(=O)C2CC2)c2ccccc21 | inconclusive: -45.5% |
| N#CC1=C(Nc2ccccc2Cl)SC(c2ccccc2O)NC1=O (centres undefined) | inconclusive: -51.1% |
| O=C(Nc1ccccc1F)N1CCc2ccccc2C1 | inactive: -4.88% |
| Cc1cc(C)cc(Nc2ncnc3c2nc2n3CCCC2)c1 | inconclusive: -42.6% |
| O=C(COc1ccc(F)cc1Cl)Nc1nc(-c2ccccn2)cs1 | active: -81.6% |
